Literature values as cited in patent publication US7687487B2, “Camptothecin-analog with a novel, “flipped” lactone-stable, E-ring and methods for making and using same” (BioNumerik Pharmaceuticals, Inc., priority 2007, dated 2010).

Settings: dissolving in 1 mL of water

## CC[C@@]1(O)C(=O)OCc2c1cc1n(c2=O)Cc2cc3ccccc3nc2-1 [CPT, (S)-4-Ethyl-4-hydroxy-1 H-pyrano[3′,4′:6,7]indolizino[1,2-b]quinoline-3,14(4H,12H)-dione]
  solubility in water of closed E-ring lactone form: approximately 0.1 μg
